For two molecules, binding results are on record in publication PMC10761881.

For the experiment, the target named is Cka (epitope-tagged, co-immunoprecipitation in Drosophila cells) (Drosophila). Put plainly: co-IP; Drosophila S2R+ cells (S2 cells in the legend of Fig. 4D) transfected with epitope-tagged proteins; treatments in some panels: dsRNA against Slmap, Fgop2 or Cka, co-expression of Tak1 or Tak1 S176A, 5Z-7-Oxozeaenol (2 μM, 3 h), LPS (10 μg/mL, 2 h, after 20-Hydroxyecdysone 1 μM, 48 h).

Results are given in words; binding and its absence hold for the method and conditions named. Binding seen in cells or lysates may run through a third protein. Binding can be weak; no strength is given. Sequences can lack the tags named with a protein.

B1: Tak1 (Transforming growth factor-β-activated kinase 1), epitope-tagged (enzyme, UniProt Q9V3Q6 1-678)
chain: MATASLDALQAAYVDFSEITLREKVGHGSYGVVCKAVWRDKLVAVKEFFASAEQKDIEKEVKQLSRVKHPNIIALHGISSYQQATYLIMEFAEGGSLHNFLHGKVKPAYSLAHAMSWARQCAEGLAYLHAMTPKPLIHRDVKPLNLLLTNKGRNLKICDFGTVADKSTMMTNNRGSAAWMAPEVFEGSKYTEKCDIFSWAIVLWEVLSRKQPFKGIDNAYTIQWKIYKGERPPLLTTCPKRIEDLMTACWKTVPEDRPSMQYIVGVMHEIVKDYTGADKALEYTFVNQQIVTKESDGTVAAQPDSLSSQEGELSPSSTQLTPTTAANANVNAIAISKTTTSSMTENTSSTSSDITPTNSGQLDNNPLFYMVTNRWDAIPEEESNESRNDSFNLTSSAEATQRLETIRNGMILMACKPMEQLTLDVEANGFDLSPSESSSSSTNAKSDGRERLTVTDTKPVMMTTDLSNNNGGIHAHSNGLLSHANGWQARDEELQEQEHEQEIVNSLDVDVDPDEDENDGTEQSLAEILDPELQPEPPIPNDAESQLIYRDHRHMAKEYLSVDTNLYYAQDFKDKLIVQMDRTEREQKQELLRKMKDKEGLQSLYNNLQQQYASRQLAAGHHPQPHPHPHPNQLQHPHSHPPMHFLQDEGCGLLPGSVCGGSESVEEGWVVIPPHHNA
In the case of B1, the binding result was “binds”.

B2: Tao-1 (epitope-tagged, co-immunoprecipitation in S2R+ cells) (protein, UniProt Q0KHQ5 1-1039)
chain: MPSARPGSLKDPEIADLFNKHDPEKIFEDLREIGHGSFGAVYYARCNLTREIVAIKKMSYTGKQSQEKWQDILKEIRFLRQLNHPNTIEYKGCYLRESTAWLVMEYCVGSASDIIEVHKKPLHEDEIAAICLGVLSGLSYLHSLGRIHRDIKAGNILLTDNGVVKLADFGSAAIKCPANSFVGTPYWMAPEVILAMDEGQYDGKVDVWSLGITCIELAERKPPYFNMNAMSALYHIAQNESPTLPKNDWSDAFCSFVELCLKKMPAERPSSAKLLTHAYVTRPRSDTVLLELIARTKSAVRELDNLNYRKMKKILMVDTCETESAVGDTDDQQDDHAGGDSSKSNSITSEHSIHSVGVSAASSQSSSSNSIPAAAQNHHHIAAHHHQQAASAAVAAAMHHHHHPHQQPPPSWPSGQQGQPVPPGAVSRNSSRHRNRPPLPNIMHSMNNNVTPTNSASVVPAPAPAPVLPPPISVLPHLSAMGHVGGGGTGTGGSGGGSPASGGPLADRIQPVQPRYLTTPAAQAAVYAASSASSQQAISNAVNDHGPNNFATIRTTSIVTKQQKEHMQEEMHEQMSGYKRMRREHQAHLVKLEEKCKVDMEAHKTALDKEYDTLLHNFTRDLDRLETKHQQDVERRAKQTSAAEKKLHKEITLKQENDRKVYDLNRKKEYKANKERWKRELSMDESTPKRQRDLTLQSQKDNLKQHEAQEEQRMLQAQKQYIELEMRKFKRKRMIMQHEHEDQQLRDELGKKEQQLQQAHAMLLKHHEKTQELEYRQQKSVHQLREEQINKQHDTELHNQKDYMDRIKKELVRKHAVELRQQPKSLKQKELQIRKQFRETCKTQTKQYKRYKAQVLQTTPKEQQKEVIKQLKEEKHRKLTLLGEQYEQSIADMFQSQSYKLDESQVIECQRTHEQLEYELEMLTAYQNKNKKQAQEQRDRERRELENRVSVRRGLLENKMDAELQQFNQERAERLRMKHEKHTKELEAFDNESIALGFSTLSLIEVSREAYADEEGSLSGSMISLAHSNSSTSFPAGSL
Consider B2, for which the binding entry is recorded as “binds”.
